{
  "source": "patent US20110045073A1",
  "about": "(priority 2008, published 2011)",
  "assay": "general procedure: Fmoc solid-phase peptide synthesis; preloaded PEG-PS supports",
  "conditions": "whole synthesis, 214 nm",
  "note": "End groups of sequences in plain letters are not given here.",
  "data": [
    {"sequence": "DSHAKRHHGYKRKFHEKHHSHRGY", "values": [
      {"measurement": "final HPLC purity", "result": "at least 90%"}
    ]}
  ]
}
